In all, about 580,000 compounds went through this assay and about 6,100 (1.1%) were called active. This list was built around the results that the source calls inconclusive (neither active nor inactive); the mix of calls is not that of the screen. Calls come from the whole dose curve; as a rule, active = well fitted inhibition curve with a large enough effect; inconclusive = small, poorly fitted or top-dose-only effect, or another doubt; inactive = no such curve, though single readings can be large or run the other way. Potencies of inconclusive entries are doubtful fits and often do not repeat.
What follows are compounds tested against Polyunsaturated fatty acid lipoxygenase ALOX12 (Homo sapiens) (UniProt P18054) (assay: Primary qHTS assay for inhibitors of human arachidonate 12S-lipoxygenase (ALOX12): Round 2). Details: purified 12hLO, xylenol orange hydroperoxide absorbance; activity change, negative = inhibition: at 108 µM (top of the series) unless noted.
In short: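 Purified human 12hLO (150 nM final) in 25 mM Hepes, 0.01% Triton X-100, pH 7.0 was preincubated 15 min at room temperature with compound. Then 40 uM arachidonic acid was added, 30 min. Hydroperoxide was read by Fe-XO absorbance ratio 573/405 nm.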
% is set by controls: 0 for no effect and ±100 for the full control effect; potency is the fitted concentration of half-maximal effect.

By UniProt entry, the sequences of proteins in these tests, tags left out. Where a name states a change or a piece, a line headed by the entry shows the natural chain unless it says otherwise.
UniProt P18054: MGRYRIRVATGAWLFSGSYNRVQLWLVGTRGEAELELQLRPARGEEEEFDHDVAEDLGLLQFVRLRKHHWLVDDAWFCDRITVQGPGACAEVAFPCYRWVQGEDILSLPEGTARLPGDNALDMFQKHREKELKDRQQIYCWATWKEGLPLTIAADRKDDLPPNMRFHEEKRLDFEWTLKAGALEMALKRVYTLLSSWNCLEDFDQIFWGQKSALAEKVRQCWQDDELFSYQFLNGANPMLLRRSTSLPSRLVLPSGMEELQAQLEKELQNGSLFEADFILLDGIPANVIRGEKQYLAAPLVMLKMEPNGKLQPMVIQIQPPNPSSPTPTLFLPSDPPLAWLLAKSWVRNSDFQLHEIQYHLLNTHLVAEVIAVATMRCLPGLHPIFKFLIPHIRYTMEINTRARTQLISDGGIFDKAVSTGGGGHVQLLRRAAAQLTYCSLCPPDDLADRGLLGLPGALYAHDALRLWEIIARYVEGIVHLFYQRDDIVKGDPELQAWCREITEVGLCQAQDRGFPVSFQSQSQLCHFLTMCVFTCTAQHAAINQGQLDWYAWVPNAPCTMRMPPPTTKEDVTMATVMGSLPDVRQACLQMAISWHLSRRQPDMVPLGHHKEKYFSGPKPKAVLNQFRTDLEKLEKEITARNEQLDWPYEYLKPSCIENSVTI

Structure (SMILES) | Potency | activity change, negative = inhibition
O=C(OCCCCN1C(=O)c2ccccc2C1=O)c1n[nH]c2ccccc12 | inactive | –
COCCOC(=O)C1=C(C)NC2=C(C(=O)CC(c3ccccc3OC)C2)C1c1cccc(O)c1 (stereo not given) | inconclusive: 6.85 µM [inhibitor, partial curve] | –
O=C(COc1ccccc1Cl)OCc1cc(=O)n2nc(C3CCCCC3)sc2n1 | inconclusive: 141 µM [inhibitor, partial curve, poor fit] | –
CCOC(=O)N1CCC(NC(=O)C2CCN(Cc3nc(-c4ccccc4)no3)CC2)CC1 | inactive | –
CCCCOc1ccc(N2C(N)=NC(N)=NC23CCCCC3)cc1 | inactive | –
CCOC(=O)C1=C(N)Oc2cc(O)ccc2C1c1ccc(F)cc1F (stereo not given) | inconclusive: 56.2 µM [inhibitor, partial curve, poor fit] | –
CC(=O)Nc1ccc(CN2CCN(CC=C(C)C)C(CCO)C2)cc1 (stereo not given) | inconclusive: 2.51 µM [inhibitor, full curve, poor fit] | –
Cc1nnc(NC(=O)C2c3ccccc3C(=O)N(CC(C)C)C23CCCCC3)s1 (stereo not given) | inactive | –
COc1ccccc1C(=O)NC(=O)COC(=O)Cc1ccccc1[N+](=O)[O-] | inactive | –
NS(=O)(=O)c1ccc(NC(=O)c2ccc(-c3ccccc3)cc2)cc1 | inconclusive: 112 µM [inhibitor, partial curve, poor fit] | –
Oc1ccccc1C=NNC(=S)NC1CC2C=CC1C2 (stereo not given) | active: 44.7 µM | –
CC(C)C(NC(=O)c1ccc([N+](=O)[O-])cc1)C(C)C | inactive | –
CCOC(=O)c1c(C)[nH]c(C(=O)COC(=O)c2ccc(F)c(S(=O)(=O)N3CCOCC3)c2)c1C | inactive | –
CCc1ccc(C(=O)c2cnc3ccc(F)cc3c2S(=O)(=O)c2ccccc2)cc1 | inactive | –
CC1CN(CCCOc2ccccc2-c2ccccc2)CC(C)O1 (stereo not given) | inconclusive: 1.58 µM [inhibitor, full curve] | –
CCc1nc2cc(N3CCC(C(=O)O)CC3)cnc2nc1CC | inactive | –
Cc1ccc(-n2c(N)c(C(=O)NCc3cccnc3)sc2=S)cc1 | inconclusive: 12.6 µM [inhibitor, partial curve, poor fit] | –
CC(=O)c1ccccc1OCCCN1CCCCC1 | inconclusive: 2.82 µM [inhibitor, full curve, poor fit] | –
CCn1ccc2cc(S(=O)(=O)N3CCC(C(=O)NCCc4ccccc4Cl)CC3)ccc21 | inconclusive: 50.1 µM [inhibitor, partial curve, poor fit] | –
CCCNC(=S)N1CCN(C)CC1 | inconclusive: 0.891 µM [inhibitor, full curve] | –
CCOc1cc(/C=C2\SC(=S)N(C(C(=O)O)c3ccccc3)C2=O)ccc1O (stereo not given) | inconclusive: 39.8 µM [inhibitor, partial curve] | –
CCCOc1ccc(-c2ccc(C(=O)O)cc2)cc1 | inconclusive: 89.1 µM [inhibitor, single point] | –
Cc1ccc(N2CC(C(=O)NC3=NCCS3)CC2=O)cc1 (stereo not given) | – | inconclusive: -35.4% [inhibitor]
COc1ccc(-c2nc(NC(=O)Cn3cnc4c3c(=O)n(C)c(=O)n4C)sc2C)cc1 | inconclusive: 50.1 µM [inhibitor, partial curve, poor fit] | –

Structure (SMILES) | Potency | activity change, negative = inhibition
Cc1cc(CSc2ncccc2C(=O)Nc2ccnn2Cc2ccccc2)no1 | inactive | –
c1ccc(Nc2nc(CSc3nnnn3C3CCCC3)cs2)cc1 | inactive | –
COc1ccccc1Cc1c(-c2ccc(Cl)cc2)nc2ccc(Br)cn12 | inconclusive: 50.1 µM [inhibitor, partial curve, poor fit] | –
CC(C)NC(=O)N1CCCCC1c1nnc2n1CCNC2 (stereo not given) | inconclusive: 4.46 µM [inhibitor, single point] | –
Cc1nc2ccccn2c1/C(O)=C1\C(=O)C(=O)N(CCN(C)C)C1c1cccnc1 (stereo not given) | inconclusive: 2.24 µM [inhibitor, partial curve, poor fit] | –
CC1(C)C=Cc2c(c3c(c4c(=O)c(-c5ccc(O)cc5)coc24)OC(C)(C)CC3)O1 | inconclusive: 89.1 µM [inhibitor, partial curve, poor fit] | –
C/C(=N\Nc1ccccc1C)c1cccnc1 | inconclusive: 35.5 µM [inhibitor, partial curve, poor fit] | –
Cc1cc(Cl)ccc1S(=O)(=O)N1CCN(C2CCN(CCC(C)C)C2=O)CC1 (stereo not given) | inconclusive: 31.6 µM [inhibitor, full curve] | –
O=C1C(=O)N(CCCN2CCOCC2)C(c2ccc(F)cc2)/C1=C(\O)c1ccc2c(c1)OCCO2 (stereo not given) | inactive | –
CC(C)c1nc2cc(NC(=O)Cn3cnc4ccccc4c3=O)ccc2o1 | inconclusive: 28.2 µM [inhibitor, single point] | –
CCNC(=S)NN(c1ccccc1)c1ccccc1 | inconclusive: 63.1 µM [inhibitor, single point] | –
Cc1cc2[nH]c(=O)c(=O)[nH]c2cc1S(=O)(=O)N1CCN(c2cccc(C(F)(F)F)c2)CC1 | inconclusive: 89.1 µM [inhibitor, partial curve, poor fit] | –
CCc1ccc(CN2CCC(Oc3ccc(C(=O)N4CCCC4)cc3)CC2)cc1 | inconclusive: 100 µM [inhibitor, single point] | –
Cc1ccc(S(=O)(=O)Nc2cc(=O)[nH]c(SCc3ccccc3Cl)n2)cc1 | inconclusive: 50.1 µM [inhibitor, partial curve, poor fit] | –
Oc1c(Cl)cccc1C=Nc1cc(C(F)(F)F)ccc1Oc1ccccc1Cc1ccccc1 | inactive | –
CN(Cc1ccccc1)S(=O)(=O)c1ccc(Cl)c(C(=O)NCCc2ccccn2)c1 | inactive | –
O=C(COc1ccccc1)Nc1ccccc1N1CCN(c2ccc(F)cc2)CC1 | inactive | –
COc1ccc(-c2nc3ccc(Br)cn3c2Cc2cccc(F)c2)cc1OC | inconclusive: 50.1 µM [inhibitor, partial curve, poor fit] | –
CCOC(=O)c1c(-c2ccccc2)oc2cc(Br)c(O)cc12 | inconclusive: 100 µM [inhibitor, single point] | –
CCCCN(CC)CCNC(=O)CCn1cnc2onc(-c3ccc(F)cc3)c2c1=O | inconclusive: 141 µM [inhibitor, partial curve, poor fit] | –
CCn1c(/C=C/c2ccccc2Cl)nc2ccccc2c1=O | inconclusive: 112 µM [inhibitor, single point] | –
O=C(O)C(=O)/C(=C\c1ccc([N+](=O)[O-])cc1)c1ccc2ccccc2n1 | inconclusive: 44.7 µM [inhibitor, partial curve, poor fit] | –
CCC1CCCCN1Cc1nc2c(c(=O)n(C)c(=O)n2C)n1CCN1CCOCC1 (stereo not given) | inactive | –
COc1cc(NC(=O)NCC2CCN(Cc3ccccc3Cl)CC2)cc(OC)c1OC | inconclusive: 112 µM [inhibitor, partial curve, poor fit] | –

Structure (SMILES) | Potency | activity change, negative = inhibition
CSc1ccccc1NC(=O)Nc1ccc(Cl)cc1 | inconclusive: 12.6 µM [inhibitor, full curve, poor fit] | –
CCN1CCN(CCOCCOc2ccccc2)CC1 | inconclusive: 0.447 µM [inhibitor, full curve] | –
COc1cccc(OC)c1OCCN1CCN(C(c2ccccc2)c2ccccc2)CC1 | inconclusive: 17.8 µM [inhibitor, partial curve, poor fit] | –
COc1ccc(-c2cn3nc(N4CCCC(C(=O)Nc5cc(C)ccc5C)C4)sc3n2)cc1 (stereo not given) | inactive | –
COc1ccccc1-c1nc(C(N)=O)c2[nH]c(=O)n(-c3cccc(C)c3)c2n1 | inactive | –
CCOc1ccccc1CN1CCC2(CCN(Cc3cncs3)CC2)Oc2ccccc21 | inconclusive: 44.7 µM [inhibitor, partial curve] | –
NS(=O)(=O)c1ccc(NC(=O)COC(=O)CCc2nc3ccccc3c(=O)[nH]2)cc1 | inactive | –
NC(=O)c1cccc(-c2cccc3nccn23)c1 | inactive | –
O=C(NC1CCN(c2cc(-c3cccs3)[nH]n2)C1)c1ccccn1 (stereo not given) | inactive | –
O=C(CCCOc1ccccc1)N1CCN(c2ccccc2)CC1 | inconclusive: 20 µM [inhibitor, partial curve, poor fit] | –
O=C(NC1CCCC1)c1ccc(-c2ccc(N3CCSCC3)nc2)cc1 | inconclusive: 1.78 µM [inhibitor, full curve, poor fit] | –
CCOCCCNc1nc2c(c(=O)n(C)c(=O)n2C)n1Cc1ccccc1Cl | inactive | –
O=C(c1ccco1)N1CCN(c2ncccn2)CC1 | inactive | –
O=C(O)c1ccc(N/N=C/c2ccnc3ccccc23)cc1 | inactive | –
O=C(COC(=O)c1cc(Cl)cc(Cl)c1)NCc1ccco1 | inconclusive: 44.7 µM [inhibitor, partial curve, poor fit] | –
O=C1COc2ccc(OCc3cncs3)nc2CN1Cc1ccc(F)cc1 | inconclusive: 100 µM [inhibitor, partial curve, poor fit] | –
N#Cc1ccc(-c2ccc3c(c2)OCO3)nc1SCC(=O)Nc1ccccc1Cl | inconclusive: 112 µM [inhibitor, partial curve, poor fit] | –
COc1ccc(C)cc1NC(=O)c1nnn(Cc2cccc(F)c2)c1N | inactive | –
Cc1ccc(S(=O)(=O)N(C)CC(=O)NCC(c2ccc(F)cc2)N2CCOCC2)cc1 (stereo not given) | inconclusive: 112 µM [inhibitor, single point] | –
CCCC(=O)N1CCN(c2nc(C)c3c(c2C#N)CCCC3)CC1 | inactive | –
Cc1cc(C(=O)CN2C(=O)C(=O)N(CC(C)C)C2=O)c(C)n1-c1ccccc1F | inactive | –
CC(C)CC(c1nnnn1CC1CCCO1)N1CCN(c2cccc(Cl)c2)CC1 (stereo not given) | inactive | –

Filtered by structure, the entries above with two or more sulfur atoms.
Structure (SMILES) | Potency | activity change, negative = inhibition
Cc1ccc(-n2c(N)c(C(=O)NCc3cccnc3)sc2=S)cc1 | inconclusive: 12.6 µM [inhibitor, partial curve, poor fit] | –
CCOc1cc(/C=C2\SC(=S)N(C(C(=O)O)c3ccccc3)C2=O)ccc1O (stereo not given) | inconclusive: 39.8 µM [inhibitor, partial curve] | –
c1ccc(Nc2nc(CSc3nnnn3C3CCCC3)cs2)cc1 | inactive | –
Cc1ccc(S(=O)(=O)Nc2cc(=O)[nH]c(SCc3ccccc3Cl)n2)cc1 | inconclusive: 50.1 µM [inhibitor, partial curve, poor fit] | –
